PubChem BioAssay AID504774, Drosophila RNAi Screening Center | 2011

- Purpose: 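Knock-downs that shift viability of MMS-exposed cells relative to untreated ones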 (primary screen)
- Cells: Drosophila Kc167 cells
- Reagents: long dsRNA against Drosophila genes, about 0.25 µg dsRNA per well
- Duration: about 6 days: 3 days knock-down, then 3 days with or without MMS
- Treatment: methyl methanesulphonate 0.004% (w/v) for 3 days after knock-down
- Read-out: 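Viability in wells given MMS, read as ATP luminescence, normalised by quantiles plate by plate and averaged across replicates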
- Reading the numbers: mean viability with MMS and viability with MMS: higher = more surviving cells after MMS
The screen tested about 23,000 reagents; this is a random part of those with a known target gene and a result. 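Values are quantile-normalised luminescence on an arbitrary scale; higher means more cells surviving MMS.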 Reagents against one gene are numbered here. A plus sign joins genes that one reagent is predicted to hit.

no.	target gene	reagent no.	mean viability with MMS	viability with MMS, replicate 1	viability with MMS, replicate 2
1	gammaTub23C (GeneID 33501)	1	3.52e6	4.07e6	3.89e6
2	Galphao (GeneID 36104)	1	3.62e6	4.12e6	4.09e6
3	CG17768 + LSm-4	1	3.38e6	3.76e6	3.87e6
4	fne (GeneID 32245)	1	3.46e6	3.89e6	3.93e6
5	fne (GeneID 32245)	2	3.59e6	3.98e6	4.12e6
6	nrv2 (GeneID 33953)	1	3.27e6	3.71e6	3.70e6
7	nrv2 (GeneID 33953)	2	3.41e6	3.80e6	3.83e6
8	Jheh3 (GeneID 37182)	1	3.56e6	4.05e6	4.01e6
9	CG33233 (GeneID 2769005)	1	3.49e6	4.00e6	3.91e6
10	bru2 (GeneID 250811)	1	3.40e6	3.73e6	3.98e6
11	bru2 (GeneID 250811)	2	3.19e6	3.55e6	3.69e6
12	bru2 (GeneID 250811)	3	3.34e6	3.63e6	3.91e6
13	bru2 (GeneID 250811)	4	3.34e6	3.70e6	3.84e6
14	bru2 (GeneID 250811)	5	3.05e6	3.59e6	3.60e6
15	cmet (GeneID 53561)	1	3.53e6	3.94e6	4.07e6
16	Nlg2 (GeneID 33962)	1	3.58e6	4.11e6	3.99e6
17	Cpr65Ec (GeneID 38775)	1	3.56e6	3.96e6	4.13e6
18	CG1628 (GeneID 31990)	1	3.43e6	3.86e6	3.91e6
19	CG7183 (GeneID 42181)	1	3.74e6	4.15e6	4.26e6
20	CG2059 (GeneID 31663)	1	3.48e6	3.96e6	3.95e6
21	14-3-3zeta (GeneID 36059)	1	3.53e6	3.98e6	4.01e6
22	CG14153 (GeneID 39208)	1	3.66e6	4.24e6	4.00e6
23	CG14153 (GeneID 39208)	2	3.55e6	4.02e6	4.00e6
24	CG14000 + bchs	1	3.28e6	3.76e6	3.55e6
25	CG5377 (GeneID 42645)	1	3.37e6	3.81e6	3.87e6
26	CG9962 (GeneID 33448)	1	3.47e6	3.92e6	3.92e6
27	Ada3 (GeneID 32787)	1	3.50e6	3.94e6	3.99e6
28	Ada3 (GeneID 32787)	2	3.62e6	3.99e6	4.20e6
29	CG13385 (GeneID 34164)	1	3.48e6	3.92e6	3.97e6
30	RpS21 (GeneID 33487)	1	1.40e6	3.69e6	
31	CG7987 (GeneID 41768)	1	3.45e6	3.88e6	3.90e6
32	CycG (GeneID 43724)	1	3.45e6	3.91e6	3.92e6
33	CycG (GeneID 43724)	2	3.06e6	3.00e6	3.82e6
34	eIF3f1 (GeneID 40587)	1	3.08e6	3.62e6	3.57e6
35	CG14937 (GeneID 34591)	1	3.31e6	3.70e6	3.72e6
36	PIG-Q (GeneID 117366)	1	3.51e6	4.08e6	3.91e6
37	Pgk (GeneID 33461)	1	3.36e6	3.72e6	3.81e6
38	Pgk (GeneID 33461)	2	2.46e6	2.50e6	2.91e6
39	CG15651 (GeneID 37375)	1	3.41e6	3.89e6	3.79e6
40	Obp69a (GeneID 39411)	1	3.32e6	3.83e6	3.62e6
41	Jon99Cii (GeneID 43544)	1	4.22e6	5.17e6	4.94e6
42	Jon99Cii (GeneID 43544)	2	3.55e6	4.04e6	3.98e6
43	Tsp97E (GeneID 43241)	1	3.76e6	4.43e6	4.08e6
44	betaNACtes1 (GeneID 32360)	1	3.68e6	4.08e6	4.20e6
45	Rif1 (GeneID 246445)	1	3.37e6	3.91e6	3.89e6
46	CG13016 (GeneID 36562)	1	3.40e6	3.93e6	3.92e6
47	CG14711 + Zaf1	1	3.54e6	4.00e6	4.05e6
48	PGAP2 (GeneID 33258)	1	3.16e6	3.35e6	3.61e6
49	CG10560 (GeneID 43065)	1	3.31e6	3.71e6	3.72e6
50	CG10073 (GeneID 37225)	1	3.55e6	4.04e6	4.00e6
51	RpLP1 (GeneID 33214)	1	3.30e6	3.63e6	3.76e6
52	RpLP1 (GeneID 33214)	2	2.75e6	3.74e6	3.73e6
53	CG2955 (GeneID 33622)	1	3.50e6	3.86e6	4.03e6
54	CycT (GeneID 39961)	1	2.99e6	3.60e6	3.62e6
55	CycT (GeneID 39961)	2	2.27e6	2.34e6	2.52e6
56	PIG-A (GeneID 37020)	1	3.56e6	4.03e6	4.03e6
57	CG32074 (GeneID 317842)	1	3.32e6	3.87e6	3.84e6
58	Cp36 (GeneID 31787)	1	3.55e6	4.06e6	3.99e6
59	CG1902 (GeneID 35993)	1	3.73e6	4.16e6	4.29e6
60	CG4679 (GeneID 36466)	1	3.53e6	3.98e6	3.99e6
61	Nuak (GeneID 41256)	1	3.55e6	4.02e6	4.05e6
62	Nuak (GeneID 41256)	2	3.61e6	3.98e6	4.23e6
63	Nuak (GeneID 41256)	3	3.59e6	3.98e6	4.14e6
64	ppk12 (GeneID 37566)	1	3.47e6	3.91e6	3.95e6
65	CG42240 (GeneID 7354471)	1	3.23e6	3.94e6	3.91e6
66	CG11726 (GeneID 39275)	1	3.53e6	3.95e6	4.06e6
67	CG15561 (GeneID 43692)	1	3.37e6	3.74e6	3.82e6
68	mmm (GeneID 38851)	1	3.52e6	4.12e6	3.87e6

Not a retest: an excerpt of the list.
no.	target gene	reagent no.	mean viability with MMS	viability with MMS, replicate 1	viability with MMS, replicate 2
13	bru2 (GeneID 250811)	4	3.34e6	3.70e6	3.84e6
14	bru2 (GeneID 250811)	5	3.05e6	3.59e6	3.60e6
15	cmet (GeneID 53561)	1	3.53e6	3.94e6	4.07e6
